# Measurements from the supplement of paper PMC9135407.
# Values joined by “and” are separate entries in the source; they are usually repeats but may differ in a detail not shown here. Identical values can stand only once. Counter-ions that a name gives are not always drawn. ± gives the standard deviation of the averaged measurements. The list shows a part of the results. Baselines shift from plate to plate; read single values as rough.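 Culture-activated primary human stellate myofibroblasts, where regained lipid droplets signal inactivation. Value: share of Hoechst-counted cells above a per-plate Bodipy cutoff, in duplicate wells, with DMSO negative and nortriptyline positive controls on each plate. Hits: a control-normalized score above the plate's top-tenth-percentile nortriptyline wells, or one of a plate's three best wells. Final well concentrations are not given.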
# System: primary human hepatic stellate cells (donor 1)
# Assay: percent Bodipy-positive cells; higher = more lipid droplet accumulation
# Details: 48 h
# [1] = library stock concentration: 10 mM
# [2] = library stock concentration: 3.33 mM
# [3] = library stock concentration: 1 mM
# [4] = library stock concentration: 100 uM
# [5] = library stock concentration: 7.2 mM
structure (smiles),measurement,setting,value
CC(O)(CS(=O)(=O)c1ccc(F)cc1)C(=O)Nc1ccc(C#N)c(C(F)(F)F)c1 (stereo not given) [Bicalutamide (CDX)],percent Bodipy-positive cells,[1],24.1 ± 7.8%
CC(O)(CS(=O)(=O)c1ccc(F)cc1)C(=O)Nc1ccc(C#N)c(C(F)(F)F)c1 (stereo not given) [Bicalutamide],percent Bodipy-positive cells,[2],13.9 ± 3.2%
same,percent Bodipy-positive cells,[1],19.8 ± 2.7%
CC(O)(CS(=O)(=O)c1ccc(F)cc1)C(=O)Nc1ccc(C#N)c(C(F)(F)F)c1 (stereo not given),percent Bodipy-positive cells,[1],17.9 ± 5.1%
O=C(CCCN1CCC2(CC1)C(=O)NCN2c1ccccc1)c1ccc(F)cc1 [Spiperone],percent Bodipy-positive cells,library stock concentration: 5.1 mM,85.4 ± 1.8%
CCOC(=O)c1cncn1[C@H](C)c1ccccc1 [Etomidate],percent Bodipy-positive cells,,8.37 ± 3.4%
same,percent Bodipy-positive cells,[2],10.1 ± 4.3%
same,percent Bodipy-positive cells,[1],15.3% and 10.7% and 31%
CCC1(c2ccc(N)cc2)CCC(=O)NC1=O (racemic) [Dl-aminoglutethimide],percent Bodipy-positive cells,library stock concentration: 8.6 mM,5.89 ± 1.2%
CCCCC/C=C\C/C=C\C/C=C\C/C=C\CCCC(=O)NOCCO [oxy-Arachidonoyl Ethanolamide],percent Bodipy-positive cells,[3],7.03 ± 1.1%
"CCCCCC1OC1C/C=C\CCCCCCCC(=O)O (stereo not given) [Leukotoxin B (12,13-EODE)]",percent Bodipy-positive cells,[4],16.6 ± 12%
CNC1CC(c2ccc(Cl)c(Cl)c2)c2ccccc21 (stereo not given) [Indatraline],percent Bodipy-positive cells,[1],98.3 ± 2.4%
CCCCCCC(C)(C)c1ccc([C@@H]2C[C@H](O)CC[C@H]2CCCO)c(O)c1,percent Bodipy-positive cells,[3],20.9 ± 12%
CN[C@@H]1C[C@H]2O[C@@](C)([C@@H]1OC)n1c3ccccc3c3c4c(c5c6ccccc6n2c5c31)C(=O)NC4 [Staurosporine],percent Bodipy-positive cells,[3],99.47 ± 0.74%
O=C(O)C(Cl)Cl,percent Bodipy-positive cells,[1],4.05 ± 1.6%
"CN1[C@@H]2CC[C@H]1C[C@@H](OC(=O)c1cc(Cl)cc(Cl)c1)C2 [3-Tropanyl-3,5-dichlorobenzoate]",percent Bodipy-positive cells,[1],78.3 ± 2.8%
O=C(O)c1nn(Cc2ccc(Cl)cc2Cl)c2ccccc12 [Lonidamine],percent Bodipy-positive cells,[2],12.2 ± 9.1%
Cc1cc(C(C#N)c2ccc(Cl)cc2)c(Cl)cc1NC(=O)c1cc(I)cc(I)c1O (stereo not given) [Closantel],percent Bodipy-positive cells,library stock concentration: 3 mM,5.46 ± 1.1%
same,percent Bodipy-positive cells,[2],14.2 ± 0.86%
same,percent Bodipy-positive cells,[1],36 ± 3.3%
COc1ccc2c(c1OC)C(=O)O[C@@H]2[C@H]1c2cc3c(cc2CCN1C)OCO3 [Hydrastine hydrochloride],percent Bodipy-positive cells,,36.4 ± 4.5%
"COc1ccc2c(c1OC)C(=O)O[C@@H]2[C@H]1c2cc3c(cc2CCN1C)OCO3 [Hydrastine (1r, 9s)]",percent Bodipy-positive cells,library stock concentration: 5.2 mM,19.1 ± 3.2%
CC(C)(C)c1cc(C=C(C#N)C#N)cc(C(C)(C)C)c1O [Tyrphostin A9],percent Bodipy-positive cells,[1],77.9 ± 4.1%
CC(C)(C)c1cc(C=C(C#N)C#N)cc(C(C)(C)C)c1O [Tyrphostin 9],percent Bodipy-positive cells,[2],32.6 ± 7.9%
same,percent Bodipy-positive cells,library stock concentration: 17.7 mM,76.8 ± 9.9%
"CCCCC/C=C\CC1OC1CCCCCCCC(=O)O (stereo not given) [Leukotoxin A (9,10-EODE)]",percent Bodipy-positive cells,[4],8.22 ± 0.098%
C[C@@H]1C[C@@H]([C@H](O)CC2CC(=O)NC(=O)C2)C(=O)[C@@H](C)C1 [Cycloheximide],percent Bodipy-positive cells,,59.1 ± 1.2%
same,percent Bodipy-positive cells,library stock concentration: 7.1 mM,76.6 ± 3.6%
same,percent Bodipy-positive cells,[1],89.9 ± 1.9%
same,percent Bodipy-positive cells,library stock concentration: 17.8 mM,87.8 ± 6%
CC[C@@H](CO)NC(=O)[C@@H]1C=C2c3cccc4[nH]cc(c34)C[C@H]2N(C)C1 [Methylergometrine maleate],percent Bodipy-positive cells,,40.2 ± 18%
same,percent Bodipy-positive cells,[1],5.12 ± 4.6%
CC[C@@H](CO)NC(=O)[C@@H]1C=C2c3cccc4[nH]cc(c34)C[C@H]2N(C)C1 [Methylergonovine maleate],percent Bodipy-positive cells,library stock concentration: 4.4 mM,3.06 ± 2%
CCC1(C2=NCCN2)Cc2ccccc2O1 (stereo not given) [Efaroxan],percent Bodipy-positive cells,library stock concentration: 9.2 mM,14 ± 1.4%
"COc1ccc2c(c1OC)C(=O)O[C@H]2[C@H]1c2cc3c(cc2CCN1C)OCO3 [1r,9s-hydrastine]",percent Bodipy-positive cells,[1],15.7 ± 1.6%
CN(C)c1ccc(/C=C2\CCCN=C2c2cccnc2)cc1 [DMAB-anabaseine dihydrochloride],percent Bodipy-positive cells,[1],17 ± 0.18%
NC(N)=Nc1ccc2[nH]c3c(c2c1)C[C@@]1(O)[C@H]2Cc4ccc(O)c5c4[C@@]1(CCN2CC1CC1)[C@H]3O5 [Guanidinyl-naltrindole di-trifluoroacetate],percent Bodipy-positive cells,[1],73.6 ± 7.8%
NC(N)=Nc1ccc2[nH]c3c(c2c1)C[C@@]1(O)[C@H]2Cc4ccc(O)c5c4[C@@]1(CCN2CC1CC1)[C@H]3O5 [GNTI dihydrochloride],percent Bodipy-positive cells,[1],8.13 ± 0.98%
CCOC(=O)c1ncn2c1[C@@H]1CCCN1C(=O)c1cc(OC)ccc1-2,percent Bodipy-positive cells,[1],28.9% and 5.48%
CCCCOC(=O)c1ccccc1C(=O)OCCCC [Dibutyl phthalate],percent Bodipy-positive cells,[5],2.06 ± 0.062%
COc1ccc2c(c1O)-c1cccc3c1[C@@H](C2)N(C)CC3 [R(-)-Apocodeine hydrochloride],percent Bodipy-positive cells,[1],79.3 ± 7.7%
C[N+]1(C)CCc2cc3c(cc2[C@H]1[C@@H]1OC(=O)c2c1ccc1c2OCO1)OCO3 [(-)-Bicuculline methiodide],percent Bodipy-positive cells,[1],2.67 ± 0.55%
"C[N+]1(C)CCc2cc3c(cc2[C@H]1[C@@H]1OC(=O)c2c1ccc1c2OCO1)OCO3 [(-)-Bicuculline methbromide, 1(S), 9(R)]",percent Bodipy-positive cells,[1],37 ± 1.1%
C[N+]1(C)CCc2cc3c(cc2[C@H]1[C@@H]1OC(=O)c2c1ccc1c2OCO1)OCO3 [(-)-Bicuculline methochloride],percent Bodipy-positive cells,[1],9.78 ± 4.7%
CCNC(=O)C1OC(n2cnc3c(N)ncnc32)C(O)C1O (stereo not given) [5'-N-Ethylcarboxamidoadenosine (NECA)],percent Bodipy-positive cells,library stock concentration: 16.2 mM,14.4 ± 5.2%
Cc1nnc2n1-c1ccc(Cl)cc1C(c1ccccc1)=NC2 [Alprazolam],percent Bodipy-positive cells,[1],9.82 ± 1.8%
CN1CC[C@@H]2CN3CCc4cccc(c43)[C@@H]2C1 [SDZ SER 082 fumarate],percent Bodipy-positive cells,[1],9.9 ± 1.5%
"C[N+]1(C)[C@@H]2CC(OC(=O)[C@H](CO)c3ccccc3)C[C@H]1[C@@H]1O[C@@H]12 (single isomer, unassigned; (-)) [(-)-Scopolamine methyl nitrate]",percent Bodipy-positive cells,[1],15.8 ± 1.3%
NC(CCP(=O)(O)O)C(=O)O (stereo not given) [(?)-2-Amino-4-phosphonobutyric acid],percent Bodipy-positive cells,[1],50.1 ± 7.2%
CC(=O)O[C@H]1C(=O)[C@@]2(C)[C@H]([C@H](OC(=O)c3ccccc3)[C@]3(O)C[C@H](O)C(C)=C1C3(C)C)[C@]1(OC(C)=O)CO[C@@H]1C[C@@H]2O [Baccatin iii],percent Bodipy-positive cells,[1],34.6 ± 6%
CC(C)(O)[C@@H]1[C@H]2OC(=O)[C@@H]1[C@]1(O)C[C@H]3O[C@]34C(=O)O[C@H]2[C@]14C [Picrotin],percent Bodipy-positive cells,[1],47.9 ± 3.6%
O=C(O)/C=C\C(=O)O.O=C1/C(=C/c2ccccc2)C[C@@]2(O)C3Cc4ccc(O)c5c4[C@@]2(CCN3CC2CC2)[C@H]1O5 [BNTX maleate],percent Bodipy-positive cells,[1],95 ± 5%
c1cncc([C@@H]2CCCCN2)c1 [Anabasine],percent Bodipy-positive cells,,7.79 ± 3.2%
NC(Cc1cc(O)c(O)cc1O)C(=O)O (racemic) [6-Hydroxy-DL-DOPA],percent Bodipy-positive cells,[1],47.8 ± 28%
COc1cc(C(O)CN)ccc1O (stereo not given),percent Bodipy-positive cells,[1],35.2 ± 5.8%
CCCCC/C=C\C/C=C\C/C=C\C/C=C\CCCC(=O)OCCN [O-Arachidonoyl Ethanolamine (hydrochloride)],percent Bodipy-positive cells,[3],14.3 ± 2.3%
O=c1[nH]oc2c1CCNC2 [THIP Hydrochloride],percent Bodipy-positive cells,,8.95 ± 3.5%
O=c1[nH]oc2c1CCNC2 [THIP hydrochloride],percent Bodipy-positive cells,[1],26.8% and 12.9%
C[C@H](N)C(=O)N[C@@H](C)C(=O)N[C@@H](Cc1ccccc1)C(=O)CCl,percent Bodipy-positive cells,library stock concentration: 14.7 mM,93.4 ± 2.9%
CC[C@@]1([C@H]2O[C@H]([C@H]3O[C@@](O)(CO)[C@H](C)C[C@@H]3C)C[C@H]2C)CC[C@H]([C@@]2(C)CC[C@]3(C[C@H](O)[C@@H](C)[C@@H]([C@H](C)[C@H](OC)[C@@H](C)C(=O)O)O3)O2)O1 [Monensin sodium],percent Bodipy-positive cells,[5],57.5 ± 2.2%
COc1cc2c(c(OC)c1OC)-c1ccc(OC)c(=O)cc1[C@@H](NC(C)=O)CC2 [Colchicine],percent Bodipy-positive cells,,69.2 ± 3.6%
same,percent Bodipy-positive cells,library stock concentration: 5 mM,11.2 ± 1.4%
CC(C)C1CNC(C(=O)O)C1CC(=O)O (stereo not given) [Dihydrokainic acid],percent Bodipy-positive cells,[1],33 ± 2.6%
N#C[C@H](O[C@@H]1O[C@H](CO[C@@H]2O[C@H](CO)[C@@H](O)[C@H](O)[C@H]2O)[C@@H](O)[C@H](O)[C@H]1O)c1ccccc1 [Amygdalin],percent Bodipy-positive cells,[1],36.1 ± 2.8%
CC[C@@H](CO)NC(=O)[C@@H]1C=C2c3cccc4c3c(cn4C)C[C@H]2N(C)C1 [Methysergide],percent Bodipy-positive cells,library stock concentration: 5.7 mM,6.59 ± 1.8%
"CC(=O)N1CC[N+](C)(C)CC1 [4-Acetyl-1,1-dimethylpiperazinium iodide]",percent Bodipy-positive cells,[1],5.96 ± 0.94%
C[C@]12CC[C@H](O)CC1=CC[C@@H]1[C@@H]2CC[C@]2(C)C(=O)CC[C@@H]12 [Dehydroepiandrosterone],percent Bodipy-positive cells,library stock concentration: 6.9 mM,9.56 ± 0.47%
C[C@]12CC[C@H](O)CC1=CC[C@@H]1[C@@H]2CC[C@]2(C)C(=O)CC[C@@H]12 [Dehydroepiandrosterone (DHEA)],percent Bodipy-positive cells,[2],27.7 ± 17%
same,percent Bodipy-positive cells,[1],11.9 ± 1.7%
Cc1cc([C@@H]2CCCN2C)on1 [ABT-418 hydrochloride],percent Bodipy-positive cells,[1],44.3 ± 11%
CN1C(=O)CN=C(c2ccccc2)c2cc(Cl)ccc21 [Diazepam],percent Bodipy-positive cells,[1],14.1 ± 3.6%
"COc1ccc2c(c1OC)CN1CCc3cc4c(cc3C1C2)OCO4 (stereo not given) [(d,l)-Tetrahydroberberine]",percent Bodipy-positive cells,,10 ± 2.8%
Cl.Oc1ccc2c3c1O[C@H]1c4[nH]c5ccccc5c4C[C@@]4(O)C(C2)N(CC2CC2)CCC314 (stereo not given in full) [Naltrindole hydrochloride],percent Bodipy-positive cells,[1],95.4 ± 1.9%
CC1C=CC=CCCC=CC=CC=CC=CC(OC2OC(C)C(O)C(N)C2O)CC2OC(O)(CC(O)C(O)CCC(O)CC(O)CC(O)CC(=O)OC(C)C(C)C1O)CC(O)C2C(=O)O (stereo not given) [Nystatin],percent Bodipy-positive cells,[1],16.1 ± 2.5%
O=c1[nH]c2ccccc2n1C1CCN(CCCC(c2ccc(F)cc2)c2ccc(F)cc2)CC1 [Pimozide],percent Bodipy-positive cells,[1],99.08 ± 0.71%
"CC(N)C(O)c1ccc(O)c(O)c1 (single isomer, unassigned; (-)) [(-)-alpha-Methylnorepinephrine]",percent Bodipy-positive cells,[1],22.8 ± 7.2%
C[C@H]1O[C@@H](O[C@H]2CC[C@]3(C=O)[C@H]4CC[C@]5(C)[C@@H](C6=CC(=O)OC6)CC[C@]5(O)[C@@H]4CC[C@]3(O)C2)C[C@H](O)[C@@H]1O [Helveticoside],percent Bodipy-positive cells,,69.1 ± 23%
COC1(C[S@+]([O-])c2ccccc2)CCN(CCc2c[nH]c3ccc(F)cc23)CC1,percent Bodipy-positive cells,[1],39.011 ± 0.0064%
CC[N+]1(C)CCCC(OC(=O)C(O)(c2ccccc2)c2ccccc2)C1 (stereo not given) [Pipenzolate bromide],percent Bodipy-positive cells,,8.72 ± 3.6%
same,percent Bodipy-positive cells,[1],38 ± 8.5%
